# In PubChem BioAssay AID1347426 (Functional Genomics Laboratory (NCATS/FGL), 2020):
# Among all 31,000 sequences or so, about 1,400 (4.5%) were called active.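 Rule for the calls: active = median seed-adjusted z-score above 1 or below -1; inactive = the rest.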 The list shows a part of the results.
# Experiment: Novel Modifiers of Survival Motor Neuron (SMN) Protein: Gene Identification via Genome-wide siRNA Screen;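 note: luminescence tracks full-length SMN protein made from the SMN2 reporter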
# Conditions: HEK293T SMN2-luciferase reporter, siRNA knockdown, 72 h; actives lie on both sides
# Procedure, shortened: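 HEK293T cells stably carrying an SMN2 promoter/splicing cassette–luciferase reporter were reverse-transfected with 1 pmol siRNA per well (druggable-genome library, 3 siRNAs per gene) and grown 72 h at 37 °C. Luminescence, normalized to negative-control siRNA and log10-transformed, was scored as MAD.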
row,Sequence,median seed-adjusted z-score
1,GAACUUCUCCAGAGGAUAATT against NGLY1,inactive: -0.0453
2,GAACGAUUCUCUCUAUAGATT against DSG1,inactive: 0.187
3,GCGUAGUUAUAGAAGUAGATT against RBMX2,inactive: -0.585
4,CUCAAUACCUCAUCAGUCATT against NOVA2,inactive: 0
5,UACCGUAAAUGUCCAUUUATT against CDKN2A,inactive: -0.0748
6,UGAUGAAGUACAUCCAUUATT against BCL2,inactive: 0
7,GCGGUGUUGUGGACAAACATT against PTPRB,inactive: -0.0981
8,GCAACGUGUACUUCGCCAATT against KCNJ4,inactive: -0.492
9,AGGUCAAGGUUGACAACCATT against SYN1,inactive: -0.458
10,GCAUUGACGUGAUGGUCCATT against ATAD3B,inactive: -0.624
11,GGAAUGGAAUUUAAAUUUATT against EGLN3,inactive: -0.0575
12,CCAGAACCGACGCUACAAATT against NKX2-6,inactive: -0.00448
13,CGCUAUGCGGAGUUCUACATT against ALOX12B,inactive: 0.0071
14,GGAUAAGAACAUCAUAGAATT against SYK,inactive: 0.567
15,GGAUAAAUCGAUUCAUGUATT against VILL,inactive: 0.518
16,GGGCAGUUGAUGAACGAAUTT against COG2,inactive: 0.791
17,CCCAUGUGAUCAAACGGUATT against SNX26,inactive: -0.788
18,AGAAAUUGCUGUCCCAUAATT against RNF185,inactive: -0.388
19,GGAACAAAUUCUUAUGCGATT against MORC3,inactive: 0.245
20,GAACAUGAGUAUAAGUGUGTT against PTPRC,inactive: 0.197
21,AGUAUUUCGUGCGCACCAATT against MGAT3,inactive: -0.118
22,GGACGACCUCUAUGACCAATT against LSR,inactive: 0.306
23,GGCAAGGUCUUGUCACUGATT against STK11IP,inactive: 0.0745

row,Sequence,median seed-adjusted z-score
1,ACAUUUAGCCCUCUACUCATT against SLC46A1,inactive: -0.00763
2,CAUGCGUCCUCAUAUCUUUTT against CHRNA9,inactive: -0.454
3,CUAUCAUACAAUUCCGAGATT against APPL2,inactive: -0.245
4,CUUGUUCCCUAUUCAAUCATT against HSPA4L,inactive: 0.288
5,GAAGUAGGAAGAUCAUGUATT against CPSF3,inactive: -0.918
6,GGCCUGAUGCAGCUACUAUTT against TPP2,inactive: -0.562
7,CGAAUUUGACGAGAACAAATT against ARPC5L,inactive: -0.36
8,CGAUGUGAUGAAUAAUUCUTT against PRPH2,inactive: 0.0931
9,GAAUGAGCUUAGCAAUCCATT against BAI3,inactive: 0.0657
10,CCACUGCGGACCAACUAUATT against NPTX1,inactive: -0.117
11,GGGUAACAAGGUAGACAAATT against RAB9B,inactive: -0.0301
12,AGAUGAACCUGUCACUCAATT against DUSP7,inactive: 0
13,GGAUGACAACGAACGCAUUTT against RASSF2,inactive: -0.649
14,CAUUAGAUCAGGCAAGUGATT against METAP2,inactive: 0.325
15,CCUUCAAUGGUAGCGAGAATT against KRT31,inactive: 0.604
16,ACUCAGUCCUGUUUGACAATT against ADC,inactive: -0.157
17,GGCAAGUUGUUCUCCGUAATT against NUP160,inactive: -0.261
18,CAGCAAAAACGUAAGAUCUTT against ZFAND2B,inactive: 0
19,GCAUGUCCAUUUCGGCUGATT against BPI,inactive: 0
20,CAAAGAUGAUUAUCCAUCUTT against UBE2I,inactive: 0.717
21,GGAUUGUAUUAAAUCCAGATT against SLC25A2,inactive: 0.586
22,GAGGAAUAUUGAAGGCAAATT against IRF2,inactive: 0.367
23,CUACGGAGAGUGUACGAUUTT against CHST2,inactive: 0

row,Sequence,median seed-adjusted z-score
1,GGAAAUAUCGGAACCAGAATT against JMJD6,inactive: 0.314
2,GCAUAGCAGAAUGGAGUAATT against MUSK,inactive: 0.138
3,CCAUCCUUCCCAGAUAUUATT against HDDC3,inactive: 0.549
4,GGUCAUUGAUUUAGAUGAATT against CTDSPL,inactive: 0.43
5,CAACAACGAGAAUCCUGAATT against TSPYL2,inactive: 0.0187
6,GAGGCUUGCUGGACCUAAATT against PLA2G5,inactive: 0.0601
7,GCAAUUACAUUGUACGCUUTT against ETFDH,inactive: 0.154
8,GGACCACGUCAAGACUUGUTT against TRAF2,inactive: -0.00463
9,GGUAUGAACAGUAUGCCUATT against HLA-G,inactive: 0.0348
10,CUGUUGGAAUUCUUCGAAATT against AGL,inactive: -0.385
11,GUACCUUUCUACCACUUUATT against MITF,inactive: -0.249
12,GGAGUUCAUCCGUCAAGUUTT against BIRC3,inactive: -0.644
13,GCUUCAUCGUGUACUACAATT against INSRR,inactive: 0.13
14,GAACAACAGAGAUAAGAAATT against CRCP,inactive: 0
15,CCGUCUCUUCUUGACCUAUTT against B3GNT4,inactive: 0.124
16,GGACAUGGGUCAGAGUGAATT against GRPEL1,inactive: 0
17,GGAAGUCUGUUGACACUCATT against JMJD1C,inactive: 0.0338
18,GGUGUGGAGUUUCAAAGUATT against DUXA,inactive: 0
19,GAACGAGGUGUACUGCCUGTT against FBLIM1,inactive: 0.0604
20,GGACCUCUCGAUUCACAAUTT against NCR2,inactive: -0.0526
21,CUAUCACUCUGGAACUGGATT against SMC2,inactive: -0.052
22,GCUUACUACACUUUUCUAATT against G6PC2,inactive: -0.0362
23,AGCGCAUCGUGAUUGGAGATT against ATP4A,inactive: 0

# As a working copy, part of the list above:
row,Sequence,median seed-adjusted z-score
14,GAACAACAGAGAUAAGAAATT against CRCP,inactive: 0
15,CCGUCUCUUCUUGACCUAUTT against B3GNT4,inactive: 0.124
